± gives the standard deviation of the averaged measurements. This is one part of the list.
Target: T1, PC (UniProt P11498)
T1 sequence (whole entry): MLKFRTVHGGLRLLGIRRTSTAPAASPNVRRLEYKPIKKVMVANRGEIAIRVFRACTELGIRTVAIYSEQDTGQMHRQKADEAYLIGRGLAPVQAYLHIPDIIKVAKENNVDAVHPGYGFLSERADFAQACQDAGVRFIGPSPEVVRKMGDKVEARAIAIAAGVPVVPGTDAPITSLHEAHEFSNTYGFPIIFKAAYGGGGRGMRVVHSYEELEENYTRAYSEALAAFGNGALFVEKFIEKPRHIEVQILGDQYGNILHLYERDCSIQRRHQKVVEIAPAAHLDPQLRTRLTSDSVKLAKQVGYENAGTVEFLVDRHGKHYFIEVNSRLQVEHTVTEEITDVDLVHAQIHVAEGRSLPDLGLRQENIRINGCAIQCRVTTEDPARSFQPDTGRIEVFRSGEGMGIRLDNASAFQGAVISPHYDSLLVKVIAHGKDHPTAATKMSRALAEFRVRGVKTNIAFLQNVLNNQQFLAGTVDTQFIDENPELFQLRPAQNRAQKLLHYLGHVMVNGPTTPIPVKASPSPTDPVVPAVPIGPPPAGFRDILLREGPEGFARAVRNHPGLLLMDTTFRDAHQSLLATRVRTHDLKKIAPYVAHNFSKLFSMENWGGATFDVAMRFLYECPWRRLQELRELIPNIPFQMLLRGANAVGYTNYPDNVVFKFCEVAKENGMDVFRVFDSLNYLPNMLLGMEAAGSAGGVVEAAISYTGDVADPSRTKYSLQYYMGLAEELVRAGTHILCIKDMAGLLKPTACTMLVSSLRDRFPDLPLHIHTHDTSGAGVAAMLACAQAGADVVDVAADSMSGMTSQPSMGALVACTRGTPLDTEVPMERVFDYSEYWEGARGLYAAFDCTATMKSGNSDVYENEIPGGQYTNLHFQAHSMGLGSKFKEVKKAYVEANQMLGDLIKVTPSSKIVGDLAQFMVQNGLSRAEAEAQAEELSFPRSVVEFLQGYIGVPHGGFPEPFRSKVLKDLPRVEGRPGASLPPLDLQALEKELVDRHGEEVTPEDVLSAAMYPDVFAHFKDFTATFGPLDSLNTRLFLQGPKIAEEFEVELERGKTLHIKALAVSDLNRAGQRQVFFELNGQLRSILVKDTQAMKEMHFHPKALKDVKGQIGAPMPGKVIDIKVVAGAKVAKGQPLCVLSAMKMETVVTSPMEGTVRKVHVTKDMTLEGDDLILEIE
Assay: NP40-soluble protein abundance relative to vehicle (solubility fold change) (ratio); higher = more soluble protein in presence of GTP
Procedure: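 Solubility proteome profiling in Jurkat crude lysate. Lysate was treated with Mg-GTP (0.1-10 mM) for 10 min at room temperature and 3 min at 37 °C, then solubilised with 0.8% NP40 and benzonase, followed by ultracentrifugation. Proteins were quantified by TMT10 LC-MS/MS; the value is the NP40-soluble abundance relative to the NP40-processed vehicle, from 3 independent experiments.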

SMILES: Nc1nc2c(ncn2[C@@H]2O[C@H](COP(=O)(O)OP(=O)(O)OP(=O)(O)O)[C@@H](O)[C@H]2O)c(=O)[nH]1 [guanosine triphosphate]
- NP40-soluble protein abundance (concentration: 0.1mM): 1.06 ± 0.055
- NP40-soluble protein abundance (concentration: 0.5mM): 1.05 ± 0.029
- NP40-soluble protein abundance (concentration: 1mM): 0.9929 ± 0.0084
- NP40-soluble protein abundance (concentration: 2mM): 1 ± 0.048
- NP40-soluble protein abundance (concentration: 4mM): 1.01 ± 0.048
- NP40-soluble protein abundance (concentration: 6mM): 0.992 ± 0.03
- NP40-soluble protein abundance (concentration: 8mM): 0.978 ± 0.019
- NP40-soluble protein abundance (concentration: 10mM): 0.948 ± 0.05
